This is an account of results in publication PMC9323718.

Sequences of proteins named here, by UniProt entry; tags and fusion partners are left off.
UniProt P48995: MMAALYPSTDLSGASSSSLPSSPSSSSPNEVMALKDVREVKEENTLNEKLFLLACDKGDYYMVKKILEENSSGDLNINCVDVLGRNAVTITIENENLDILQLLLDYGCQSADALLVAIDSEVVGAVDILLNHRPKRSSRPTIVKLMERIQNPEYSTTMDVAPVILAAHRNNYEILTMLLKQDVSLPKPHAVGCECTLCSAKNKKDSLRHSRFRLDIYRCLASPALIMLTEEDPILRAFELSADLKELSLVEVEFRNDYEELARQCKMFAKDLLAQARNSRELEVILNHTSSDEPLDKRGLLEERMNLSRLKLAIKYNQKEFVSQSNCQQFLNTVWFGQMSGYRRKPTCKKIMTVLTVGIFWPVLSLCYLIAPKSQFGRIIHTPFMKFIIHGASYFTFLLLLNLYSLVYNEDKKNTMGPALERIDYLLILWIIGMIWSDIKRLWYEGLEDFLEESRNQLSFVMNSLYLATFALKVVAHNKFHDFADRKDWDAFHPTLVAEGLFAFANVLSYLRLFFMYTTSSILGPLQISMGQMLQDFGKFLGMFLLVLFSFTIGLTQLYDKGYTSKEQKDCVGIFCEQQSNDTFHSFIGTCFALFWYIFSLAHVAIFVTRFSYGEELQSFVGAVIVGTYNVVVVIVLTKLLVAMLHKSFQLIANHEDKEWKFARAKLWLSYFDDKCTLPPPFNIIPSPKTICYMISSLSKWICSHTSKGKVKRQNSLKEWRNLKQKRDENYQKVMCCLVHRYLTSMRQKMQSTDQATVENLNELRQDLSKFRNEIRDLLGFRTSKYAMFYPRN
UniProt P27986: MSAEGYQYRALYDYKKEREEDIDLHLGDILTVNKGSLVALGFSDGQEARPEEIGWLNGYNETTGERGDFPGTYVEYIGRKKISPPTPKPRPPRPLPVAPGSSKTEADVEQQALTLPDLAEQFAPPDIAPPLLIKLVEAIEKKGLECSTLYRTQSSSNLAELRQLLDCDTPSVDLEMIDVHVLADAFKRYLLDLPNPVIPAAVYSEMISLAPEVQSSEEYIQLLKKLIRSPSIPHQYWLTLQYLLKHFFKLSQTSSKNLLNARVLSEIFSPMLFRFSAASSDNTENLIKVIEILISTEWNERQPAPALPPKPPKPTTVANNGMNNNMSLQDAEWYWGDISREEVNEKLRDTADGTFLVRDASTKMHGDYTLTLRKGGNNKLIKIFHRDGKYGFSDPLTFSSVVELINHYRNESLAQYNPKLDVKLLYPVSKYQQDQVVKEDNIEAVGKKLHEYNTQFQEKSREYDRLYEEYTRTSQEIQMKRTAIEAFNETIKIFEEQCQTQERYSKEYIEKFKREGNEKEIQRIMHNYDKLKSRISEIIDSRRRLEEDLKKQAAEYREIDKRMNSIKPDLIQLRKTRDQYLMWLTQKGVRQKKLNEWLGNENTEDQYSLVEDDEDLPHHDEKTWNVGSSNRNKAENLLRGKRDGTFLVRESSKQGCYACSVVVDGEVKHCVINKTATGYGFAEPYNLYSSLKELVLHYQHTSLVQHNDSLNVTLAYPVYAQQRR

These are yes or no findings as the source states them, for the method shown. Binding seen in cells or lysates may run through a third protein. Some binding calls cover weakened binding; strength is not graded here.

The target of the assay is transient receptor canonical ion channel (TRPC1) (human (endogenous in PANC-1)) (UniProt P48995). The assay can be described thus: co-IP; 500 µg protein of non-transfected or siCTRL/siTRPC1-transfected PANC-1 cells; 1 µg TRPC1 antibody or PI3K p85α antibody on Protein A magnetic beads; lysate rotated 2 h at room temperature; Western blot; co-precipitate reduced after TRPC1 knock-down.

Regarding “PI3K p85α subunit (from UniProt P27986 1-724)”, the binding entry was “binds”.
